Measured values reported in the supplement of paper PMC5355238.
Structures can show the parent of a compound that is named as a salt. This is one part of the list. Many values rest on one well or one pass, so single values are uncertain.

system: Reh; test: S-phase gammaH2AX median, Z-score vs plate median (drug alone); higher = more S-phase DNA damage; settings: MK1775 concentration 0 nM; 10 µM; 4 h

SMILES	S-phase gammaH2AX median (Z-score)
CC1=C(C(=O)O)N2C(=O)[C@@H](NC(=O)[C@H](N)c3ccccc3)[C@H]2SC1 [Cephalexin hydrate]	0.113
CCCc1c(OCCCOc2ccc(OCC(=O)O)cc2)ccc(C(C)=O)c1O	-0.173
CCSC(N)=Nc1ccc(C(F)(F)F)cc1 [TFPI hydrochloride]	-0.327
O=c1c2ccccc2[nH]c(=S)n1CCN1CCC(=C(c2ccc(F)cc2)c2ccc(F)cc2)CC1 [Diacylglycerol Kinase Inhibitor II]	0.0535
CC[C@@H]1Cc2cc(O)ccc2C2=C1c1ccc(O)cc1C[C@H]2CC [(R,R)-cis-Diethyl tetrahydro-2,8-chrysenediol]	-0.104
Oc1cc(O)cc(/C=C/c2ccc(O)c(O)c2)c1 [Piceatannol]	0.0497
Nc1nnc(-c2cccc(Cl)c2Cl)c(N)n1 [Lamotrigine]	-0.11
CC[C@@]1(O)C(=O)OCc2c1cc1n(c2=O)Cc2cc3c(CN(C)C)c(O)ccc3nc2-1 [Topotecan HCl]	6.35
O=C1c2ccccc2-c2nc3nonc3nc21	1.64
CC(=O)O[C@]1(C(C)=O)CC[C@H]2[C@@H]3C=C(C)C4=CC(=O)CC[C@]4(C)[C@H]3CC[C@@]21C [Megestrol Acetate]	0.0584
Cc1cccc(C2CN(C)CCc3c2cc(O)c(O)c3Cl)c1 (stereo not given)	0.207
Cc1nc(N=Nc2cc(S(=O)(=O)O)c3cc([N+](=O)[O-])cc(S(=O)(=O)O)c3c2)c(COP(=O)(O)O)c(C=O)c1O [PPNDS tetrasodium]	-0.0071
O=c1[nH]c2cc(Cl)c(Cl)cc2[nH]c1=O [6,7-Dichloroquinoxaline-2,3-dione]	0.0661
O=C1OC(=O)[C@H]2[C@@H]1[C@@H]1CC[C@H]2O1 [Norcantharidin]	-0.0118
Cc1nnc(SCC2=C(C(=O)O)N3C(=O)[C@@H](NC(=O)Cn4cnnn4)[C@H]3SC2)s1 [Cefazolin sodium]	0.0583
Cn1cncc1[C@@](N)(c1ccc(Cl)cc1)c1ccc2c(c1)c(-c1cccc(Cl)c1)cc(=O)n2C [Tipifarnib (Zarnestra)]	0.122
CN1C2CCC1CC(NC(=O)c1nn(C)c3ccccc13)C2 (stereo not given) [LY-278,584 maleate]	0.18
CCCCC1(C2CCCC2)Cc2cc(OCC(=O)O)c(Cl)c(Cl)c2C1=O (stereo in doubt) [R(+)-Butylindazone]	0.132
NCCCCN [Putrescine dihydrochloride]	0.4
O=C(NCCCNc1nc(Nc2cccc(NC(=O)N3CCCC3)c2)ncc1I)c1cccs1	-0.0321
NCCC(=O)NCCc1c[nH]cn1 [Carcinine dihydrochloride]	-0.0155
O=C1Nc2ccc(I)cc2/C1=C/c1cc(Br)c(O)c(Br)c1	0.126
Cc1ccccc1N1CCN(S(=O)(=O)C[C@]23CC[C@H](CC2NC(=O)[C@@H](N)CCS(C)(=O)=O)C3(C)C)CC1 (stereo not given in full)	-0.132
O=C1N=C(O)NC1(c1ccccc1)c1ccccc1 [Phenytoin sodium]	0.142
COc1cc2c(cc1OC)-c1c/c(=N\c3c(C)cc(C)cc3C)n(C)c(=O)n1CC2 [Trequinsin hydrochloride]	-0.34
Oc1nc(-c2ccc(C(F)(F)F)cc2)nc2c1CSCC2	-0.0128
Cc1cnc(-c2cnc(NCCNc3ccc(C#N)cn3)nc2-c2ccc(Cl)cc2Cl)[nH]1	-0.0561

SMILES	S-phase gammaH2AX median (Z-score)
CNCc1ccc(-c2[nH]c3cc(F)cc4c3c2CCNC4=O)cc1	0.353
CCNC(=O)c1noc(-c2cc(C(C)C)c(O)cc2O)c1-c1ccc(CN2CCOCC2)cc1	-0.0816
COc1cc(/C=C(\C#N)C(=O)c2ccc(O)c(O)c2)cc(I)c1O [I-OMe-Tyrphostin AG 538]	-0.447
CC(C[N+](C)(C)C)OC(N)=O (stereo not given) [Bethanechol chloride]	0.0291
CC(C)Oc1cc(Nc2nc(N[C@@H](C)c3ccc(F)cn3)ncc2Cl)n[nH]1	-0.0932
N[C@@H](Cc1c[nH]cn1)C(=O)O [L-Histidine hydrochloride]	0.0126
Cc1cn([C@H]2C[C@H](N=[N+]=[N-])[C@@H](CO)O2)c(=O)[nH]c1=O [3'-Azido-3'-deoxythymidine]	0.551
COc1ccc([C@@H]2Sc3ccccc3N(CCN(C)C)C(=O)[C@@H]2OC(C)=O)cc1 [Diltiazem hydrochloride]	0.0283
CC(=N)NCc1cccc(CN)c1 [1400W dihydrochloride]	0.0267
O=C(CCCN1CCC(O)(c2ccc(Cl)cc2)CC1)c1ccc(F)cc1 [Haloperidol]	0.0661
O=c1[nH]c2cc(Cl)ccc2c(O)c1-c1cccc(Oc2ccccc2)c1	-0.0567
C=CCN1CCc2c(cc(O)c(O)c2Cl)C(c2ccccc2)C1 (stereo not given) [(?)-Chloro-APB hydrobromide]	-0.0252
N=C(N)SCCc1ccc(CCSC(=N)N)cc1 [1,4-PBIT dihydrobromide]	0.317
CN1CCC(CNc2ccc3ncc(-c4cccc(OC(F)(F)F)c4)n3n2)CC1 [SGI-1776 free base]	-0.0893
CC(N)(Cc1ccc(O)cc1)C(=O)O (racemic) [DL-alpha-Methyl-p-tyrosine]	0.00388
COc1c(C)c2c(c(O)c1C/C=C(\C)CCC(=O)OCCN1CCOCC1)C(=O)OC2 [Mycophenolate mofetil (CellCept)]	0.0143
CN1C(C(=O)Nc2ccccn2)=C(O)c2ccccc2S1(=O)=O [Piroxicam]	0.0875
COCCOC(=O)C1=C(C)NC(C)=C(C(=O)OC(C)C)C1c1cccc([N+](=O)[O-])c1 (stereo not given) [Nimodipine]	0.121
NCCS [Cysteamine hydrochloride]	0.0922
COC(=O)[C@@H](N)Cc1ccc(O)c(O)c1 [L-3,4-Dihydroxyphenylalanine methyl ester hydrochloride]	-0.0945
COc1ccc2c(c1)c(CC(=O)O)c(C)n2Cc1ccc(Cl)cc1 [1-(4-Chlorobenzyl)-5-methoxy-2-methylindole-3-acetic acid]	-0.0777
COc1ccc(COc2cc3oc(=O)c4cc(C(C)O)ccc4c3cc2OC)cc1 (stereo not given) [Palomid 529]	-0.0244
O=C(O)c1ccccc1Nc1cccc(OCc2ccc3ccccc3n2)c1	0.0868
COc1cc(C(O)C(=O)O)ccc1O (stereo not given) [(?)-Vanillylmandelic acid]	0.132
CC(C)(C)NCC(O)c1ccc(O)c(CO)c1 (stereo not given) [Salbutamol]	-0.0734
CC(C)(C)NCC(O)c1ccc(O)c(CO)c1 (stereo not given) [Albuterol hemisulfate]	-0.133
CCCCCCCC/C=C\CCCCCCCC(=O)O [Oleic Acid]	0.102

SMILES	S-phase gammaH2AX median (Z-score)
Cn1c(=O)c2c(ncn2C)n(C)c1=O [Caffeine]	-0.0175
CC[C@@H]1C(=O)N(C)c2cnc(Nc3ccc(C(=O)NC4CCN(C)CC4)cc3OC)nc2N1C1CCCC1	-0.0777
Cc1c(OCC(F)(F)F)ccnc1C[S+]([O-])c1nc2ccccc2[nH]1 (stereo not given) [Lansoprazole]	0.00946
[N-]=[N+]=Nc1ccc(C(=O)CSC[C@H](NC(=O)CC[C@H](N)C(=O)O)C(=O)NCC(=O)O)cc1 [S-(p-Azidophenacyl)glutathione]	0.183
C#CCN(C)CC1=Cc2ccccc2Oc2ccccc21	0.128
CC[C@H](Nc1ncnc2[nH]cnc12)c1nc2cccc(F)c2c(=O)n1-c1ccccc1	-0.0615
COc1ccccc1CNCCCCCCNCCCCCCCCNCCCCCCNCc1ccccc1OC [Methoctramine tetrahydrochloride]	0.0781
O=C(NC1CCNCC1)c1n[nH]cc1NC(=O)c1c(Cl)cccc1Cl	-0.0592
CN(C)CCCC1(c2ccc(F)cc2)OCc2cc(C#N)ccc21 (stereo not given) [Citalopram hydrobromide]	0.0874
Nn1nnc2ccccc21 [1-Aminobenzotriazole]	-0.0447
CCCC(CCC)C(=O)O [Valproic acid sodium salt (Sodium valproate)]	-0.0491
CN(C)CCC(c1ccc(Cl)cc1)c1ccccn1 (stereo not given) [(?)-Chlorpheniramine maleate]	0.00971
C[C@H](O)C(=O)C1=Nc2c(nc(N)[nH]c2=O)NC1 [Sepiapterin]	0.427
COc1ccccc1N1CCN(CCN2C(=O)CC3(CCCC3)CC2=O)CC1 [BMY 7378 dihydrochloride]	-0.00194
CC(C)(C)c1cc(/C=C(\C#N)C(N)=S)cc(C(C)(C)C)c1O [Tyrphostin AG 879]	0.374
Cc1nc2c(OCc3ccccc3)cccn2c1CC#N	0.0346
CCOC(=O)C1=C(C)NC(C)=C(C(=O)OC)C1c1cccc([N+](=O)[O-])c1 (stereo not given) [Nitrendipine]	0.00946
CN(C)c1nc(N)c(C(=O)NC(=N)N)nc1Cl [5-(N,N-Dimethyl)amiloride hydrochloride]	0.92
O=C(c1ccc(OCCN2CCCCC2)cc1)c1c(-c2ccc(O)cc2)sc2cc(O)ccc12 [Evista (Raloxifene Hydrochloride)]	-0.13
O=C(c1ccc(OCCN2CCCCC2)cc1)c1c(-c2ccc(O)cc2)sc2cc(O)ccc12 [Raloxifene hydrochloride]	-0.173
CC(CN1c2ccccc2Sc2ccccc21)N(C)C (stereo not given) [Promethazine hydrochloride]	-0.0378
CNC(=O)c1ccccc1Sc1ccc2c(/C=C/c3ccccn3)n[nH]c2c1 [Axitinib]	0.0313
O=C(Nc1cccc(Cl)c1)Nc1ncc(CCNc2ncnc3ccsc23)s1	-0.135
CCCOC(=O)c1c(-c2ccccc2)nc(CC)c(C(=O)SCC)c1CCC	0
COc1ccc(CCCOC(Cn2ccnc2)c2ccc(OC)cc2)cc1 (stereo not given)	0.04
O=C(NCC1CCCCN1)c1cc(OCC(F)(F)F)ccc1OCC(F)(F)F (stereo not given) [Flecainide acetate]	-0.189

An excerpt of these results, as labelled records:
Oc1nc(-c2ccc(C(F)(F)F)cc2)nc2c1CSCC2
  S-phase gammaH2AX median (Z-score): -0.0128
COCCOC(=O)C1=C(C)NC(C)=C(C(=O)OC(C)C)C1c1cccc([N+](=O)[O-])c1 (stereo not given) [Nimodipine]
  S-phase gammaH2AX median (Z-score): 0.121
NCCS [Cysteamine hydrochloride]
  S-phase gammaH2AX median (Z-score): 0.0922
CNC(=O)c1ccccc1Sc1ccc2c(/C=C/c3ccccn3)n[nH]c2c1 [Axitinib]
  S-phase gammaH2AX median (Z-score): 0.0313
